Experimental data: PubChem BioAssay AID1159578 (Peter MacCallum Cancer Centre, 2015)
Screen: 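Knock-downs that alter how fast lymphatic endothelial cells migrate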 (primary screen). Cell system: human lymphatic endothelial cells. Reagents: siRNA pool against human genes, 40 nM. Timing: 48 h after transfection. Measurement: 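High-content imaging of dye-stained cells in a scratch assay measures filled wound area and nuclei per well; duplicate means given as ratio to mock and robust z-score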. Direction: migration robust z-score: higher = faster migration into the scratch; nuclei per well: higher = more cells in the well. Rule for the call: 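Pools averaging fewer than 3300 nuclei are never called; remaining pools count as changed when migration robust z lies outside -2 to 2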. Meaning of the calls: active = migration changed; inactive = no migration change, or too few cells.
The whole screen tested about 18,000 reagents; below is a random part of them. About 1,030 of all reagents (5.7%) were called active. 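Inactive calls also include pools with fewer than 3300 nuclei, whose migration was not assessed.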 Raw values are not corrected between plates. Further read-outs or replicates are left out here.

gene	migration robust z-score	nuclei per well, duplicate mean	activity call
ARHGAP31 (Rho GTPase activating protein 31)	-1.03	6842	inactive
MIP (major intrinsic protein of lens fiber)	0.68	6270	inactive
EVX1 (even-skipped homeobox 1)	0.44	5544	inactive
NDEL1 (nudE neurodevelopment protein 1 like 1)	-1.14	4536	inactive
DUOXA1 (dual oxidase maturation factor 1)	-0.46	6322	inactive
C1QC (complement C1q C chain)	-2.27	5294	active
TAX1BP1 (Tax1 binding protein 1)	-0.78	5456	inactive
OR6C75 (olfactory receptor family 6 subfamily C member 75)	0.57	4758	inactive
PITPNC1 (phosphatidylinositol transfer protein cytoplasmic 1)	-0.16	5952	inactive
RBM22 (RNA binding motif protein 22)	-1.21	4909	inactive
PPP1R17 (protein phosphatase 1 regulatory subunit 17)	0.19	4951	inactive
BATF3 (basic leucine zipper ATF-like transcription factor 3)	-0.24	4690	inactive
CSRP1 (cysteine and glycine rich protein 1)	0.57	6810	inactive
NR2F1 (nuclear receptor subfamily 2 group F member 1)	1.25	5971	inactive
CFAP69 (cilia and flagella associated protein 69)	0.7	5649	inactive
CSTF3 (cleavage stimulation factor subunit 3)	-0.94	5387	inactive
ADAM29 (ADAM metallopeptidase domain 29)	-1.14	3973	inactive
ELOVL3 (ELOVL fatty acid elongase 3)	0.92	6322	inactive
POLD1 (DNA polymerase delta 1, catalytic subunit)	0.5	5504	inactive
GAGE2E (G antigen 2E)	0.72	5152	inactive
FAM222B (family with sequence similarity 222 member B)	-2.4	4972	active
POLR1H (RNA polymerase I subunit H)	1.46	5235	inactive
KCNE3	1.2	5607	inactive
HLA-DRA (major histocompatibility complex, class II, DR alpha)	-0.26	6531	inactive
HOXA11 (homeobox A11)	-0.08	7056	inactive
SACK1A (scaffolding CK1 anchoring protein A)	-3.21	4256	active
FASTKD3 (FASTK mitochondrial RNA regulator 3)	-0.23	5475	inactive
UBL5 (ubiquitin like 5)	-1.84	3198	inactive
BMP2K (BMP2 inducible kinase)	0.18	5473	inactive
ARMC5 (armadillo repeat containing 5)	0.16	5635	inactive
DUOXA2 (dual oxidase maturation factor 2)	-2.1	5986	active
AQP1 (aquaporin 1 (Colton blood group))	-0.91	5539	inactive
RNPEPL1 (arginyl aminopeptidase like 1)	0.44	5026	inactive
SPATA32 (spermatogenesis associated 32)	1.4	5757	inactive
AMIGO2 (adhesion molecule with Ig like domain 2)	-0.04	5692	inactive
GNAZ (G protein subunit alpha z)	0.37	5166	inactive
SLC2A4RG (SLC2A4 regulator)	-0.76	4020	inactive
KDM8 (lysine demethylase 8 (putative))	-1.05	5704	inactive
SNX16 (sorting nexin 16)	0.16	6158	inactive
BCL10 (BCL10 immune signaling adaptor)	-0.7	3380	inactive
DICER1 (dicer 1, ribonuclease III)	-1.31	5652	inactive
ODAD1 (outer dynein arm docking complex subunit 1)	-1.98	5660	inactive
XAGE3 (X antigen family member 3)	-4.31	507	inactive
MTA3 (metastasis associated 1 family member 3)	-0.64	5956	inactive
SLC4A1	0.73	5830	inactive
KCTD2 (potassium channel tetramerization domain containing 2)	-0.78	5605	inactive
KTN1 (kinectin 1)	-0.97	6158	inactive
HOATZ (HOATZ cilia and flagella associated protein)	-0.26	6936	inactive
HCCS (holocytochrome c synthase)	0.46	5222	inactive
PSPHP1 (phosphoserine phosphatase pseudogene 1)	-0.31	5816	inactive
ATP5PB (ATP synthase peripheral stalk-membrane subunit b)	-0.41	5306	inactive
SLC6A7	0.5	5374	inactive
SRCAP (Snf2 related CREBBP activator protein)	0.2	4286	inactive
GFRA4 (GDNF family receptor alpha 4)	-0.8	4286	inactive
PAWR (pro-apoptotic WT1 regulator)	-0.13	5706	inactive
UBE2Z (ubiquitin conjugating enzyme E2 Z)	0.26	4916	inactive
PCIF1 (phosphorylated CTD interacting factor 1)	0.35	6084	inactive

Only “nuclei per well, duplicate mean” (3 entries from above):
FASTKD3 (FASTK mitochondrial RNA regulator 3)	5475
UBL5 (ubiquitin like 5)	3198
BMP2K (BMP2 inducible kinase)	5473
